The values below come from publication PMC5884528.

In this test the target is T1, First Apoptosis Signal receptor (FAS) (human (endogenous in hVSMCs)), P25445.
T1 chain: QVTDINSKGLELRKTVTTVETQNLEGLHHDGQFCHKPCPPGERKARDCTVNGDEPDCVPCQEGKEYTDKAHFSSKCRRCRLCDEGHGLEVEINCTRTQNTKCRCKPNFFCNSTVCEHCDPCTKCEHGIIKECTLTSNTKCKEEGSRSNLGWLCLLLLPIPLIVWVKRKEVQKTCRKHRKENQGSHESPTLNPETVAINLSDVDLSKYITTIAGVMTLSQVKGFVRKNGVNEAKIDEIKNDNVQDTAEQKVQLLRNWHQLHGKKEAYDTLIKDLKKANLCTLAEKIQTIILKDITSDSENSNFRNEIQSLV
Put plainly: co-IP; lysates of hVSMCs infected with RAd60 or RAd-T3 (600 pfu/cell) for 48 h; IP with anti-FAS monoclonal 3D5 and protein-G sepharose at 4°C; IP buffer 20 mM Tris-HCl pH 7.4, 150 mM NaCl, 10 mM EDTA, 10% glycerol, 1% NP40, 1% Triton-X100; blot probed for caspase-8 and FAS. Conditions: remark: other sources report otherwise.

These are yes or no findings as the source states them, for the method shown. Binding seen in cells or lysates may run through a third protein. Some binding calls cover weakened binding; strength is not graded here.

B1: procaspase-8, Q14790 1-479 (enzyme)
chain: MDFSRNLYDIGEQLDSEDLASLKFLSLDYIPQRKQEPIKDALMLFQRLQEKRMLEESNLSFLKELLFRINRLDLLITYLNTRKEEMERELQTPGRAQISAYRVMLYQISEEVSRSELRSFKFLLQEEISKCKLDDDMNLLDIFIEMEKRVILGEGKLDILKRVCAQINKSLLKIINDYEEFSKERSSSLEGSPDEFSNGEELCGVMTISDSPREQDSESQTLDKVYQMKSKPRGYCLIINNHNFAKAREKVPKLHSIRDRNGTHLDAGALTTTFEELHFEIKPHDDCTVEQIYEILKIYQLMDHSNMDCFICCILSHGDKGIIYGTDGQEAPIYELTSQFTGLKCPSLAGKPKVFFIQACQGDNYQKGIPVETDSEEQPYLEMDLSSPQTRYIPDEADFLLGMATVNNCVSYRNPAEGTWYIQSLCQSLRERCPRGDDILTILTEVNYEVSNKDDKKNMGKQMPQPTFTLRKKLVFPSD
Consider B1, for which the binding result was “binds”.
